Results are given in words; binding and its absence hold for the method and conditions named. Binding seen in cells or lysates may run through a third protein. Some results given as binding are weak or reduced against the parent protein; the word gives no strength.
Target: T1, cellugyrin (synaptogyrin-2) (human (endogenous in THP-1)) (UniProt O43760)
T1 sequence: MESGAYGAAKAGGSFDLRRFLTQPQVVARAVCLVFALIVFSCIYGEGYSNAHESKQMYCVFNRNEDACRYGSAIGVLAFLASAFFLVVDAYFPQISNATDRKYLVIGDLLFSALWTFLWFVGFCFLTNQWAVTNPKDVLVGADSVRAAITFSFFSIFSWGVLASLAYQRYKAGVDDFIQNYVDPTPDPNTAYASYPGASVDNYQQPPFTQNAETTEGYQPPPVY
Assay: co-IP

binding: binds
B1: Derlin-2 (protein, UniProt Q9GZP9 1-239)
chain: MAYQSLRLEYLQIPPVSRAYTTACVLTTAAVQLELITPFQLYFNPELIFKHFQIWRLITNFLFFGPVGFNFLFNMIFLYRYCRMLEEGSFRGRTADFVFMFLFGGFLMTLFGLFVSLVFLGQAFTIMLVYVWSRRNPYVRMNFFGLLNFQAPFLPWVLMGFSLLLGNSIIVDLLGIAVGHIYFFLEDVFPNQPGGIRILKTPSILKAIFDTPDEDPNYNPLPEERPGGFAWGEGQRLGG

— article PMC7325893
